In the experiment the target is Rab1 (UniProt P62820). The experiment can be described thus: pull-down; both purified.

By UniProt entry, the sequences of proteins in these tests, tags left out.
UniProt P62820: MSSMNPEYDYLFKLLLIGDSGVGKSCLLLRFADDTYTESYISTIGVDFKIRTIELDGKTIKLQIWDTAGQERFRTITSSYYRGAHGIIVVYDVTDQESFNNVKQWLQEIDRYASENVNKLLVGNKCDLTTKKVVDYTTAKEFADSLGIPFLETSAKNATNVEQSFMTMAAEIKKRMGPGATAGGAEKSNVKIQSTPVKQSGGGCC

Results are given in words; binding and its absence hold for the method and conditions named.

B1: SidD (enzyme, UniProt Q5ZSQ2 1-507)
chain: MVYYEIIKDIVFTYNLQFTHLIHNDRISEVNLGGVTMRSIITQICNGVLHGQSYQSGSNDLDKGNSEIFASSLFVHLNEQGKEIIKHKDSDDKIVIGYTKDGMAFQIVVDGFYGCERQAVFSFIDNYVLPLIDNFSLDLTRYPDSKKVTESLIHTIYSLRSKHAPLAEFTMSLCVTYQKDEQLFCAGFGIGDTGIAIKRNEGTIEQLVCHTEVDGFKDAFDNYSSANIDLVIERNSVFNTKVMPGDELVGYTYVPPMLEMTEKEFEVETVDGKKINKRIVRHLNLDPGNFDDKDPLFSQLLQVVKSKQKQLVEQAKETGQIQRFGDDFTVGRLVIPDQLLINQLRIHALSIGVSDGLLSYIKNENENKGFLGIYGFFTGADKNIEKATLYKNLIAKYQNNHFISLIILSALVSDSKTPLMTQYLVGYLDFPSKALLANKITELLLKELENPDMREILGSRLATDVIEELETKIIRYIHNPAGSDIHSTLNLWTADKIKAATNSSLTI
For B1, the binding result is recorded as “no binding”.

The values above are taken from PMC3656104.
